PubChem BioAssay AID1159584 | Peter MacCallum Cancer Centre | 2016
This is a random part of about 18,000 reagents. Further read-outs or replicates are left out here. Not given: the amount of reagent, the time to read-out.

Purpose: 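Knock-downs that harm CDH1-null cells more than parental MCF10A cells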 (primary screen)
Cell system: human MCF10A breast epithelial cells, parental and CDH1-null
Knock-down reagent: siRNA against human genes
Read-out: 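Cell viability by CellTiter-Glo ATP luminescence, each line scaled to the mean of mock wells across plates, then CDH1-null over parental ratio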
Direction: CDH1-null / parental viability ratio: higher = CDH1-null cells survive relatively better than parental

For RBM5 the deposit lists CDH1-null / parental viability ratio 1.07.
Against OR7E85BP, the entry reads CDH1-null / parental viability ratio 0.87.
ITGAD gave CDH1-null / parental viability ratio 1.
OR52N1 scored CDH1-null / parental viability ratio 1.06.
Depletion of DCAF7 came out at: CDH1-null / parental viability ratio 0.72.
MYOM2 gave CDH1-null / parental viability ratio 0.85.
Depletion of DEFA1 gave: CDH1-null / parental viability ratio 0.72.
Knock-down of DDX41 came out at: CDH1-null / parental viability ratio 0.94.
With knock-down of WDR18, the record shows CDH1-null / parental viability ratio 0.81.

Records above whose gene name begins with D or d (3):
DCAF7 — CDH1-null / parental viability ratio = 0.72
DEFA1 — CDH1-null / parental viability ratio = 0.72
DDX41 — CDH1-null / parental viability ratio = 0.94

The results go on:
TNFAIP6 gave CDH1-null / parental viability ratio 1.03.
For SMOX the deposit lists CDH1-null / parental viability ratio 1.11.
Against SLTM, the entry reads CDH1-null / parental viability ratio 1.09.
With knock-down of AEBP1, the screen gave CDH1-null / parental viability ratio 1.05.
LSM12 gave CDH1-null / parental viability ratio 1.51.
